# In article PMC6805999, “Molecular Mechanism of SR Protein Kinase 1 Inhibition by the Herpes Virus Protein ICP27” (mBio, 2019):
# Chains of the proteins cited; added tags and fusions are not shown. Residues count along the entry.
# UniProt Q07955: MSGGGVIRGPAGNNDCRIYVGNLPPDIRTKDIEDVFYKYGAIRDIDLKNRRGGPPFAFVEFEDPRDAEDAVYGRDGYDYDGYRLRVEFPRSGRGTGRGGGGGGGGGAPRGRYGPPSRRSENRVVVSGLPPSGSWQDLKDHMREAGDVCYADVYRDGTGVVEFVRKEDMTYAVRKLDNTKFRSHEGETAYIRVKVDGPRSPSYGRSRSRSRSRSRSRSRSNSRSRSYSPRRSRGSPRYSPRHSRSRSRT
# UniProt P10238, residues 103-155: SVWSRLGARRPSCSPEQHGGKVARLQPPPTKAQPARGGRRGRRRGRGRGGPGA
# These are yes or no findings as the source states them, for the method shown.
# Biological target: full-length SRSF1 (UniProt Q07955)
# Assay: NMR titration; IDIS-HSQC NMR of a 1:1 mixture of 50 μM 13C,15N-labelled ICP27 103-155 and 50 μM 15N-labelled SRSF1, then unlabelled GB1-SRPK1 added to 25 μM and to 50 μM; both purified
substance,measurement,value
recombinant isotope-labelled ICP27 103-155 (expressed as GST-ICP27 103-155) (from UniProt P10238 103-155) (domain or fragment),binding,no binding (tested: 50 μM each)
